Measured values reported in patent publication US20130295118A1 (CELLERANT THERAPEUTICS, published 2013).
Residue numbers refer to the chain shown, from its start. No constants are given. Whether binding was seen depends on the method and setting. Binding calls can cover weak binding; strength is not graded here.

B1: CLL-1 antibody clone M31 (antibody, IgG2a, V domains shown)
VH: EVQLQQSGPELVKPGASVKMSCKASGYTFTSYVMHWVKQKPGQGLEWIGYINPYNDGTKYNEKFKGKATLTSDTSSSTAYMELNSLTSEDSAVYFCARPIYFDNDYFDYWGQGTTLKVSS
VL: TIVLTQSPASLAVSLGQRATISCRASESVDSYGNSFMHWYQQKPGQPPKLLIYLASNLESGVPARFSGSGSRTDFTLTIDPVEADDAATYYCQQNNYDPWTFGGGTKLEIK
B2: CLL-1 antibody clone M22 (antibody, IgG2a, V domains shown)
VH: QVQLQQPGAELVKPGASVKLSCKASGYTFTRYWMHWVKQRPGQGLEWIGNIDPSDTETHYNQQFKDKATLTVDKSSSTAYMQLSSLTSEDSAVYYCAIYYGNPSYYAMDYWGQGTSVTVSS
VL: DIVMTQSPSSLTVTAGEKVTMSCKSSQNLLNSGNQKKYLNWYQQKPGQPPKLLIYWASTRESGVPDRFTGSGSGTDFTLTISSVQAEDLAVYFCQNDYSYPFTFGAGTKLELK
B3: CLL-1 antibody clone G4 (antibody, IgG1, V domains shown)
VH: EVQLQQSGPELVKPGASMKISCKASGYSFTGYTMNWVKQSHEKNLEWIGPINPYNDGTIYNPNFKGKATLTVDKASSTAYMELLSLTSDDPAVYYCARTDDYDDYTMDYWGQGTSVTVSS
VL: EIQMTQTPSSLSASLGDRVTISCRASHDISNYLNWYQQKPDGTLKLLIYYTSRLHSGVPSRFSGSGSGTDYSLTISNLEQEDIATYFCQQGKTLLWTFGGGTKLEIK
notes: also called 31.G4; 31G4
B4: CLL-1 antibody clone M26 (antibody, V domains shown)
VH: EVQLQQSGPELVKPGASVKMSCKASGYTFTSYFIHWVKQKPGQGLEWIGFINPYNDGSKYNEKFKGKATLTSDKSSSTAYMELSSLTSEDSAVYYCTRDDGYYGYAMDYWGQGTSVTVSS
VL: DIQMTQSPSSLSASLGERVSLTCRATQELSGYLSWLQQKPDGTIKRLIYAASTLDSGVPKRFSGNRSGSDYSLTISSLESEDFADYYCLQYAIYPYTFGGGTKLEIKR
notes: Conjugated to saporin in the ADC assays
B5: CLL-1 antibody clone M2 (antibody, IgG1, V domains shown)
VH: B4 VH with Q5R, I34M, S58T, S84N, G104D
VL: B4 VL with T26S, L29I, G31V, K60E, N65S, I93S
B6: CLL-1 antibody clone M5 (antibody, IgG2a, V domains shown)
VH: EVQLQQSGAELVRPGASVKLSCTASGFNIKDDYIHWVKQRPEQGLEWIGWIDPEKGDTAYASKFQDKATITSDTSSNTAYLQLSSLTSEDTAVYYCTLTGRFDYWGQGTTLTVSS
VL: DIVMSQSPSSLAVSVGEKVTMSCKSSQSLLYSSNQKNNLAWYQQKPGQSPKLLIYWASTRESGVPDRFTGSGSGTDFTLTISSVQAEDLAVYYCQQYYSYRTFGGGTKLEIK
B7: CLL-1 antibody clone M29 (antibody, IgG1, V domains shown)
VH: EVQLQQSGPELVKPGASVKMSCKASGYIFTSYVMYWVKQKPGQGLEWIGYINPYNDGTKYNEKFKGKATLTSDKSSSTAYMELSSLTSEDSAVYYCARYYDYDYYFDYWGQGTTLTVSS
VL: DIQMTQSPSSLSASLGGKVTITCKASQDINKYIAWYQHKPGKGPRLLIHYTSTLQPGIPSRFSGSGSGRDYSFSISNLEPEDIATYYCLQYDYLWTFGGGTKLEIK

biological target: Cynomolgus monkey CLL-1 (cynomolgus monkey); test: ELISA, relative binding

| Binder | binding |
| --- | --- |
| B1 | binds |
| B2 | no binding |
| B3 | binds |
| B4 | binds |
| B5 | binds |
| B6 | binds |
| B7 | binds |
